# Laboratory results published in PubChem BioAssay AID493014 (National Center for Advancing Translational Sciences (NCATS), 2011).
# Some of the results follow. These are further read-outs of the screen, such as a control signal, another cell line or another target. No call is given for them. Most of these compounds were active or inconclusive in the main read-out, so they are no random draw. Words in brackets tell the shape of the fitted curve; partial curves, single points and poor fits give uncertain potencies.
# Experiment: qHTS Assay to Find Inhibitors of Chronic Active B-Cell Receptor Signaling
# Details: ABC-DLBCL IkBa-CBG/CBR reporter, luminescence ratio (green luciferase fused to IkBa over red control in TMD8 lymphoma cells), 4 h
# In short: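 Cell line TMD8 (human ABC DLBCL), stably expressing tet-inducible CBG68-IkBa fusion and CBR; IMDM/0.5% FBS; cpd up to 46 uM; dox induction, 4 h, 37C/5% CO2; dual luminescence; green/red ratio; MG132 control.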
# [1] = measured here: CBR red luminescence, cell number
# [2] = measured here: IkBa-CBG green luminescence
smiles,measurement,setting,value
CC1CCCC(NC(=O)COC(=O)/C=C/c2ccco2)C1C (stereo unspecified),AC50,[1],"0.103 µM [falling, full curve, poor fit]"
CCOC(=O)N/N=C/c1cn(Cc2ccc(Cl)cc2)c2ccccc12,AC50,[1],"29.1 µM [rising, single point]"
COc1ccc(CC(NC(C)=O)C(=O)NC2CCN(C(=O)Nc3ccc(Cl)cc3)CC2)cc1OC (stereo unspecified),AC50,[1],"2.51 µM [rising, full curve]"
COc1cc(C(=O)Nc2cc(-c3nc4cc(C)ccc4o3)ccc2C)cc(OC)c1OC,AC50,[1],"0.562 µM [rising, full curve]"
O=[N+]([O-])c1ccc(SCCO)nc1SCCO,AC50,[1],"15.8 µM [falling, partial curve, poor fit]"
Cn1c(/C(C#N)=C/c2ccc(O)cc2)nc2ccccc21,AC50,[1],"11.2 µM [falling, partial curve]"
COc1ccc(/C=N/N2CCN(c3ccc(Cl)cc3)CC2)cc1O,AC50,[1],"28.2 µM [falling, partial curve, poor fit]"
CCN1CCN(S(=O)(=O)CC2(C)C3CCC2(C)C(=O)C3Br)CC1 (stereo unspecified),AC50,[1],"3.16 µM [rising, single point]"
COc1cccc(Nc2nc3ccc(C(=O)c4ccccc4)cc3n3cnnc23)c1,AC50,[1],"0.112 µM [rising, full curve, poor fit]"
CCC(C(=O)c1ccc2ncccc2c1)c1ccccc1 (stereo unspecified),AC50,[1],"5.8 µM [rising, partial curve]"
CN(C)S(=O)(=O)c1cccc(NC(=O)c2cc3ccccc3o2)c1,AC50,[1],"23.1 µM [falling, partial curve]"
CNC(=O)c1nnsc1S(=O)(=O)c1ccc(Cl)cc1,AC50,[1],"2.82 µM [falling, full curve]"
COc1cccc(C(=O)Nc2ccc3c(c2)C(=O)c2ccccc2C3=O)c1,AC50,[1],"2.59 µM [rising, partial curve, poor fit]"
O=C(COC(=O)c1ccc(F)c(S(=O)(=O)N2CCOCC2)c1)c1ccc(Br)cc1,AC50,[1],"3.66 µM [falling, partial curve, poor fit]"
CCOC(=O)C1CCN(Cc2cnc(Oc3ccc(Cl)cc3C)s2)CC1,AC50,[1],"12.6 µM [falling, partial curve]"
O=C(N/N=C/c1ccc(OCC(=O)N2CCCCC2)cc1)c1ccccc1O,AC50,[1],"13 µM [falling, partial curve, poor fit]"
CCC(=O)Nc1ccc(NC(=O)c2cccc(OC)c2)nc1,AC50,[1],"8.2 µM [falling, partial curve]"
COc1ccccc1/C=C/C=N/NC(=O)c1ccco1,AC50,[1],"1.58 µM [falling, full curve]"
O=C(CCN1CCCCC1)N/N=C/c1c[nH]c2ccccc12,AC50,[1],"20 µM [rising, single point]"
CC(C#N)Sc1nc2ccccc2c(=O)n1-c1ccccc1 (stereo unspecified),AC50,[1],"11.2 µM [rising, partial curve, poor fit]"
Cc1[nH]c2ccccc2c1/C=C(\C#N)C(=O)NCc1ccccc1,AC50,[1],"1.64 µM [falling, partial curve, poor fit]"
COc1ccc2nc(NC(=O)C3CCCN3S(=O)(=O)c3ccc(C)cc3)sc2c1 (stereo unspecified),AC50,[1],"22.4 µM [falling, partial curve, poor fit]"
O=C(O)c1ccccc1-n1cccc1C(=O)O,AC50,[1],"11.2 µM [falling, partial curve, poor fit]"
CCOC(=O)/C=C/C(=O)Nc1cc(S(=O)(=O)Nc2ccc(OC)cc2)ccc1N1CCOCC1,AC50,[1],"7.31 µM [falling, partial curve]"
Cc1ccc(NC(=O)C(C)N2C(=O)C3C4CC(C(Br)C4Br)C3C2=O)cc1 (stereo unspecified),AC50,[1],"14.1 µM [falling, partial curve, poor fit]"
CSc1ccccc1NC(=O)COc1ccc(Cl)cc1,AC50,[1],"7.31 µM [falling, partial curve]"
CC(=O)N1Cc2ccccc2CC1C(=O)O (stereo unspecified),AC50,[1],"4.61 µM [falling, single point]"
CC(/C=N/NC(=O)c1cccs1)=C\c1ccco1,AC50,[1],"10 µM [falling, partial curve, poor fit]"
Clc1ccc(Cn2c(/C=C/c3ccco3)nc3ccccc32)cc1,AC50,[1],"20.6 µM [falling, single point]"
same,AC50,[2],"23.1 µM [rising, partial curve, poor fit]"
O=C(COc1ccccc1[N+](=O)[O-])N(Cc1cccc(Br)c1)C1CCS(=O)(=O)C1 (stereo unspecified),AC50,[1],"8.91 µM [falling, partial curve, poor fit]"
COc1ccccc1-c1cc(-c2ccc(C)cc2)nc(SCc2nnc(-c3ccccc3)o2)c1C#N,AC50,[1],"0.0731 µM [rising, full curve, poor fit]"
CC(C)(O)C1=NOC(c2ccccc2)C1 (stereo unspecified),AC50,[1],"16.4 µM [falling, single point]"
COc1ccc(-c2csc3ncnc(N4CCN(S(=O)(=O)c5cccs5)CC4)c23)cc1,AC50,[1],"8.2 µM [rising, partial curve]"
CCCC(=O)NC(c1ccccc1)c1c(O)ccc2ccccc12 (stereo unspecified),AC50,[1],"35.5 µM [falling, single point]"
COc1ccc(NC(=O)c2cccc(N3C(=O)C4CCC(C)CC4C3=O)c2)c(OC)c1 (stereo unspecified),AC50,[1],"2.82 µM [falling, full curve]"
O=C(CC1Oc2ccccc2NC1=O)NCCCN1CCN(Cc2ccccc2)CC1 (stereo unspecified),AC50,[1],"29.1 µM [falling, single point]"
OCCNc1ncnc2ccc(Br)cc12,AC50,[1],"12.6 µM [falling, partial curve, poor fit]"
COc1ccc(-c2cc(C(F)(F)F)nc(S(=O)(=O)CCCC(=O)Nc3cccnc3Cl)n2)cc1OC,AC50,[1],"17.8 µM [falling, partial curve]"
Cc1sc2nc(CN3CCOCC3)nc(N3CCC(C(N)=O)CC3)c2c1C,AC50,[1],"17.8 µM [rising, partial curve, poor fit]"
Cc1ccc(NC(=O)/C=C/c2ccc3c(c2)OCO3)nc1,AC50,[1],"1.3 µM [falling, partial curve, poor fit]"
O=c1[nH]c(C2CCN(S(=O)(=O)c3ccc(S(=O)(=O)NC4CC4)cc3)CC2)nc2c1nnn2Cc1cccc(F)c1,AC50,[1],"35.5 µM [falling, single point]"
Cc1cccc(NC(=O)c2ccccc2NC(=O)c2ccco2)c1,AC50,[1],"1.26 µM [falling, full curve, poor fit]"
C(=N\Nc1ccc2ccccc2n1)/c1ccc2c(c1)OCO2,AC50,[1],"5.01 µM [falling, partial curve]"
N/C(=N\OC(=O)Cc1ccc(Cl)cc1)c1ccncc1,AC50,[1],"2.24 µM [rising, partial curve, poor fit]"
O=C1C=C(c2ccccc2)OC2(CCCC2)O1,AC50,[1],"29.1 µM [rising, single point]"
O=P(COCCCCCOCP(=O)(c1ccccc1)c1ccccc1)(c1ccccc1)c1ccccc1,AC50,[1],"3.55 µM [falling, full curve]"
Cc1c(-c2nc(-c3ccc(C(F)(F)F)cc3)no2)n(C)oc1=O,AC50,[1],"0.631 µM [rising, full curve, poor fit]"
Cc1cc(NC(=O)CSc2nnc(-c3cccc(Cl)c3)o2)no1,AC50,[1],"17.8 µM [rising, single point]"
O=C(/C=C/c1ccc(OC(F)F)cc1)Nc1cccc(S(=O)(=O)N2CCOCC2)c1,AC50,[1],"17.8 µM [falling, partial curve]"
COC(=O)C1=C(C)N(Cc2ccccc2)C(=O)N[C@H]1c1cccs1,AC50,[1],"35.5 µM [falling, single point]"
Cc1sc2ncn(CC(=O)Nc3cccc(S(N)(=O)=O)c3)c(=O)c2c1-c1ccccc1,AC50,[1],"35.5 µM [falling, single point]"
CC(C)(C)OC(=O)N/N=C/c1c[nH]c2ccccc12,AC50,[1],"6.51 µM [rising, single point]"
CCOC(=O)c1c(-c2cccs2)csc1NC(=O)CCCC(=O)O,AC50,[1],"7.94 µM [falling, partial curve]"
Cc1ccc(C(C)C)cc1S(=O)(=O)NC1CC(C)(C)NC(C)(C)C1,AC50,[1],"12.6 µM [falling, partial curve, poor fit]"
CCOC(=O)c1sc(NC(=O)CC2OC(=O)c3ccccc32)nc1C (stereo unspecified),AC50,[1],"13 µM [falling, partial curve]"
COC(=O)c1sc(NC(=O)COc2c(C)cccc2C)nc1C,AC50,[1],"10 µM [falling, partial curve, poor fit]"
CCCCNS(=O)(=O)c1ccc(NC(=O)c2c(-c3ccccc3Cl)noc2C)cc1,AC50,[1],"20.6 µM [falling, single point]"
Cn1c(=O)oc2cc(S(=O)(=O)Nc3cccc(C(=O)O)c3)ccc21,AC50,[1],"32.6 µM [falling, single point]"
C/C(=N\NC(=O)c1ccccc1OCc1ccc(F)cc1)c1ccccn1,AC50,[2],"16.4 µM [falling, single point]"
O=S(=O)(Cc1ccccc1Cl)NCCOc1ccccc1,AC50,[1],"2.06 µM [rising, full curve]"
COc1ccccc1-c1cc(C(=O)N2CCN(c3ccccc3OC)CC2)no1,AC50,[1],"3.98 µM [falling, full curve]"
COc1ccc(OC)c2c1sc(=NC(=O)C(C)C)n2C,AC50,[1],"2.31 µM [falling, full curve]"
O=C1CNC(=S)N1c1nc2ccccc2s1,AC50,[1],"10 µM [falling, partial curve, poor fit]"
COc1ccc(OC)c(C2CC(=O)c3c([nH]c(C(=O)OC(C)C)c3C)C2)c1 (stereo unspecified),AC50,[1],"4.61 µM [rising, full curve, poor fit]"
same,AC50,[2],"4.11 µM [falling, full curve, poor fit]"

# Another view of some results above:
smiles | measurement | setting | value
CC1CCCC(NC(=O)COC(=O)/C=C/c2ccco2)C1C (stereo unspecified) | AC50 | [1] | 0.103 µM [falling, full curve, poor fit]
CCC(C(=O)c1ccc2ncccc2c1)c1ccccc1 (stereo unspecified) | AC50 | [1] | 5.8 µM [rising, partial curve]
COc1ccccc1-c1cc(-c2ccc(C)cc2)nc(SCc2nnc(-c3ccccc3)o2)c1C#N | AC50 | [1] | 0.0731 µM [rising, full curve, poor fit]
COc1ccc(-c2csc3ncnc(N4CCN(S(=O)(=O)c5cccs5)CC4)c23)cc1 | AC50 | [1] | 8.2 µM [rising, partial curve]
COc1ccc(NC(=O)c2cccc(N3C(=O)C4CCC(C)CC4C3=O)c2)c(OC)c1 (stereo unspecified) | AC50 | [1] | 2.82 µM [falling, full curve]
